# The list shows a part of the results.
# B1: SabA (Helicobacter pylori) (protein)
# chain: MGSSHHHHHHSSGLVPRGSHMENLYFQGEDNGFFVSAGYQIGEAVQMVKNTGELKNLNEKYEQLSQYLNQVASLKQSIQNANNIELVNSSLNYLKSFTNNNYNSTTQSPIFNAVQAVITSVLGFWSLYAGNYFTFFVGKKVGDSGQPASVQGNPPFKTIIENCSGIENCAMDQTTYDKMKKLAEDLQAAQTNSATKGNNLCALSGCAATDSTSNPPNSTVSNALNLAQQLMDLIANTKTAMMWKNIVISGVSNTSGAITSTNYPTQYAVFNNIKAMIPILQQAVTLSQSNHTLSASLQAQATGSQTNPKFAKDIYTFAQNQKQVISYAQDIFNLFNSIPAEQYKYLEKAYLKIPNAGSTPTNPYRQVVNLNQEVQTIKNNVSYYGNRVDAALSVARDVYNLKSNQAEIVTAYNDAKTLSEEISKLPHNQVNTKDIVTLPYDKNAPAAGQSNYQINPEQQSNLNQALAAMSNNPFKKVGMISSQNNNGA
# Columns and labels:
# Assay in all cases: glycan array binding signal (z-score within array); higher = stronger binding
# Details in all cases: glycan notation: IUPAC condensed, linker removed
# [1] = molecular target: Fuc(a1-2)[Gal(a1-3)]Gal(b1-4)GlcNAc(b1-2)Man(a1-3)[Fuc(a1-2)[Gal(a1-3)]Gal(b1-4)GlcNAc(b1-2)Man(a1-6)]Man(b1-4)GlcNAc(b1-4)GlcNAc
# Procedure, shortened: (§1)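 Glycan array binding is given as a within-array Z-score, which can be read as non-binding when negative. The arrays, 3228 of them, came from the Consortium for Functional Glycomics database and were retained only where the protein sequence was available. Z-scores were averaged across arrays of the same protein sequence at different concentrations or buffers and across linkers.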
# [2] = molecular target: Fuc(a1-2)[Gal(a1-3)]Gal(b1-4)GlcNAc(b1-2)Man(a1-3)[Fuc(a1-2)[Gal(a1-3)]Gal(b1-4)GlcNAc(b1-2)Man(a1-6)]Man(b1-4)GlcNAc(b1-4)[Fuc(a1-6)]GlcNAc
# Procedure, shortened: as §1
# [3] = molecular target: Fuc(a1-2)[Gal(a1-3)]Gal(b1-4)GlcNAc(b1-3)GalNAc
# Procedure, shortened: as §1
# [4] = molecular target: Fuc(a1-2)[Gal(a1-3)]Gal(b1-4)GlcNAc(b1-3)[Fuc(a1-2)[Gal(a1-3)]Gal(b1-4)GlcNAc(b1-6)]GalNAc
# Procedure, shortened: as §1
# [5] = molecular target: Fuc(a1-2)[Gal(a1-3)]Gal(b1-4)GlcNAc(b1-6)GalNAc
# Procedure, shortened: as §1
# [6] = molecular target: Fuc(a1-2)[Gal(a1-3)]Gal(b1-4)[Fuc(a1-3)]Glc
# Procedure, shortened: as §1
# [7] = molecular target: Fuc(a1-2)[Gal(a1-3)]Gal(b1-4)[Fuc(a1-3)]GlcNAc
# Procedure, shortened: as §1
# [8] = molecular target: Fuc(a1-2)[Gal(a1-3)]Gal(b1-4)[Fuc(a1-3)]GlcNAc(b1-3)GalNAc
# Procedure, shortened: as §1
# [9] = molecular target: Fuc(a1-2)[Gal(a1-4)]Gal(b1-4)GlcNAc
# Procedure, shortened: as §1
# [10] = molecular target: Fuc(a1-2)[GalNAc(a1-3)]Gal
# Procedure, shortened: as §1
# [11] = molecular target: Fuc(a1-2)[GalNAc(a1-3)]Gal(b1-3)GalNAc(a1-3)[Fuc(a1-2)]Gal(b1-4)GlcNAc
# Procedure, shortened: as §1
# [12] = molecular target: Fuc(a1-2)[GalNAc(a1-3)]Gal(b1-3)GalNAc(b1-3)Gal(a1-4)Gal(b1-4)Glc
# Procedure, shortened: as §1
# [13] = molecular target: Fuc(a1-2)[GalNAc(a1-3)]Gal(b1-3)GlcNAc
# Procedure, shortened: as §1
# [14] = molecular target: Fuc(a1-2)[GalNAc(a1-3)]Gal(b1-3)GlcNAc(b1-2)Man(a1-3)[Fuc(a1-2)[GalNAc(a1-3)]Gal(b1-3)GlcNAc(b1-2)Man(a1-6)]Man(b1-4)GlcNAc(b1-4)GlcNAc
# Procedure, shortened: as §1
# [15] = molecular target: Fuc(a1-2)[GalNAc(a1-3)]Gal(b1-3)GlcNAc(b1-2)Man(a1-3)[Fuc(a1-2)[GalNAc(a1-3)]Gal(b1-3)GlcNAc(b1-2)Man(a1-6)]Man(b1-4)GlcNAc(b1-4)[Fuc(a1-6)]GlcNAc
# Procedure, shortened: as §1
# [16] = molecular target: Fuc(a1-2)[GalNAc(a1-3)]Gal(b1-3)GlcNAc(b1-3)GalNAc
# Procedure, shortened: as §1
# [17] = molecular target: Fuc(a1-2)[GalNAc(a1-3)]Gal(b1-3)GlcNAc(b1-6)GalNAc
# Procedure, shortened: as §1
# [18] = molecular target: Fuc(a1-2)[GalNAc(a1-3)]Gal(b1-4)Glc
# Procedure, shortened: as §1
# [19] = molecular target: Fuc(a1-2)[GalNAc(a1-3)]Gal(b1-4)GlcNAc
# Procedure, shortened: as §1
# [20] = molecular target: Fuc(a1-2)[GalNAc(a1-3)]Gal(b1-4)GlcNAc(b1-2)Man
# Procedure, shortened: as §1
# [21] = molecular target: Fuc(a1-2)[GalNAc(a1-3)]Gal(b1-4)GlcNAc(b1-2)Man(a1-3)[Fuc(a1-2)[GalNAc(a1-3)]Gal(b1-4)GlcNAc(b1-2)Man(a1-6)]Man(b1-4)GlcNAc(b1-4)GlcNAc
# Procedure, shortened: as §1
# [22] = molecular target: Fuc(a1-2)[GalNAc(a1-3)]Gal(b1-4)GlcNAc(b1-2)Man(a1-3)[Fuc(a1-2)[GalNAc(a1-3)]Gal(b1-4)GlcNAc(b1-2)Man(a1-6)]Man(b1-4)GlcNAc(b1-4)[Fuc(a1-6)]GlcNAc
# Procedure, shortened: as §1
# [23] = molecular target: Fuc(a1-2)[GalNAc(a1-3)]Gal(b1-4)GlcNAc(b1-3)Gal(b1-4)GlcNAc
# Procedure, shortened: as §1
# [24] = molecular target: Fuc(a1-2)[GalNAc(a1-3)]Gal(b1-4)GlcNAc(b1-3)Gal(b1-4)GlcNAc(b1-3)Gal(b1-4)GlcNAc
# Procedure, shortened: as §1
# [25] = molecular target: Fuc(a1-2)[GalNAc(a1-3)]Gal(b1-4)GlcNAc(b1-3)GalNAc
# Procedure, shortened: as §1
# [26] = molecular target: Fuc(a1-2)[GalNAc(a1-3)]Gal(b1-4)GlcNAc(b1-3)[Fuc(a1-2)[GalNAc(a1-3)]Gal(b1-4)GlcNAc(b1-6)]GalNAc
# Procedure, shortened: as §1
# [27] = molecular target: Fuc(a1-2)[GalNAc(a1-3)]Gal(b1-4)GlcNAc(b1-6)GalNAc
# Procedure, shortened: as §1
# [28] = molecular target: Fuc(a1-2)[GalNAc(a1-3)]Gal(b1-4)[Fuc(a1-3)]GlcNAc
# Procedure, shortened: as §1
# [29] = molecular target: Fuc(a1-2)[GalNAc(a1-3)]Gal(b1-4)[Fuc(a1-3)]GlcNAc(b1-3)GalNAc
# Procedure, shortened: as §1
# [30] = molecular target: Fuc(a1-2)[GalNAc(a1-4)]Gal(b1-4)GlcNAc
# Procedure, shortened: as §1
# [31] = molecular target: Fuc(a1-2)[GalNAc(b1-3)]Gal
# Procedure, shortened: as §1
# Fuc(a1-3)GlcNAc = molecular target: Fuc(a1-3)GlcNAc
# Procedure, shortened: as §1
# [32] = molecular target: Fuc(a1-3)[Gal(b1-4)]Glc6S
# Procedure, shortened: as §1
# [33] = molecular target: Fuc(a1-3)[Gal(b1-4)]GlcNAc
# Procedure, shortened: as §1
# [34] = molecular target: Fuc(a1-3)[Gal(b1-4)]GlcNAc(b1-2)Man
# Procedure, shortened: as §1
# [35] = molecular target: Fuc(a1-3)[Gal(b1-4)]GlcNAc(b1-2)Man(a1-3)[Fuc(a1-3)[Gal(b1-4)]GlcNAc(b1-2)Man(a1-6)]Man(b1-4)GlcNAc(b1-4)GlcNAc
# Procedure, shortened: as §1
# [36] = molecular target: Fuc(a1-3)[Gal(b1-4)]GlcNAc(b1-2)Man(a1-3)[Fuc(a1-3)[Gal(b1-4)]GlcNAc(b1-2)Man(a1-6)]Man(b1-4)GlcNAc(b1-4)[Fuc(a1-6)]GlcNAc
# Procedure, shortened: as §1
binder,measurement,setting,value
B1,glycan array binding signal (z-score),[1],-0.026
same,glycan array binding signal (z-score),[2],1.37
same,glycan array binding signal (z-score),[3],-0.376
same,glycan array binding signal (z-score),[4],2.78
same,glycan array binding signal (z-score),[5],-0.065
same,glycan array binding signal (z-score),[6],-0.48
same,glycan array binding signal (z-score),[7],-0.058
same,glycan array binding signal (z-score),[8],0.348
same,glycan array binding signal (z-score),[9],-0.526
same,glycan array binding signal (z-score),[10],0.183
same,glycan array binding signal (z-score),[11],-0.73
same,glycan array binding signal (z-score),[12],0.24
same,glycan array binding signal (z-score),[13],0.031
same,glycan array binding signal (z-score),[14],-0.485
same,glycan array binding signal (z-score),[15],0.437
same,glycan array binding signal (z-score),[16],0.802
same,glycan array binding signal (z-score),[17],-0.962
same,glycan array binding signal (z-score),[18],-0.596
same,glycan array binding signal (z-score),[19],-0.145
same,glycan array binding signal (z-score),[20],-0.319
same,glycan array binding signal (z-score),[21],-0.361
same,glycan array binding signal (z-score),[22],1.65
same,glycan array binding signal (z-score),[23],-0.455
same,glycan array binding signal (z-score),[24],-0.285
same,glycan array binding signal (z-score),[25],-0.419
same,glycan array binding signal (z-score),[26],-0.028
same,glycan array binding signal (z-score),[27],-0.962
same,glycan array binding signal (z-score),[28],0.137
same,glycan array binding signal (z-score),[29],0.302
same,glycan array binding signal (z-score),[30],-0.374
same,glycan array binding signal (z-score),[31],-0.571
same,glycan array binding signal (z-score),Fuc(a1-3)GlcNAc,-0.659
same,glycan array binding signal (z-score),[32],0.92
same,glycan array binding signal (z-score),[33],0.428
same,glycan array binding signal (z-score),[34],-0.421
same,glycan array binding signal (z-score),[35],-0.661
same,glycan array binding signal (z-score),[36],-0.218

# — the supplement of paper PMC8728848
